Some results come without the dose or concentration used.
Test: Physical activity monitoring by accelerometer (steps, PAEE, sedentary time)
Type: in vivo, human
Conditions: for LI PA ES (d) / MV PA ES (d) / PAEE ES (d) / Sedentary Time ES (d) / Steps ES (d): effect size; for LI PA Δ / MV PA Δ / PAEE Δ / Sedentary Time Δ / Steps Δ: pre- to late intervention

## CC(C)(O)CC(=O)O [TRFHMB, β-hydroxy-β-methylbutyrate]
ITT, Early Intervention
  LI PA: 200 ± 18 min/d
  MV PA: 57 ± 7 min/d
  PAEE: 411 ± 41 kcal
  Sedentary Time: 570 ± 19 min/d
  Steps: 9179 ± 790 #/d
ITT, Late Intervention
  LI PA: 210 ± 24 min/d
  MV PA: 44 ± 9 min/d
  PAEE: 352 ± 52 kcal
  Sedentary Time: 570 ± 23 min/d
  Steps: 7896 ± 1094 #/d
ITT, Pre-intervention
  LI PA: 203 ± 16 min/d
  MV PA: 48 ± 7 min/d
  PAEE: 378 ± 49 kcal
  Sedentary Time: 574 ± 16 min/d
  Steps: 8393 ± 855 #/d
ITT
  LI PA ES (d): 0.10
  MV PA ES (d): −0.14
  PAEE ES (d): −0.14
  Sedentary Time ES (d): −0.06
  Steps ES (d): −0.14
  LI PA Δ: 7 min/d
  MV PA Δ: −4 min/d
  PAEE Δ: -26 kcal
  Sedentary Time Δ: −4 min/d
  Steps Δ: −497 #/d
PP, Early intervention
  LI PA: 222 ± 22 min/d
  MV PA: 58 ± 10 min/d
  PAEE: 453 ± 61 kcal
  Sedentary Time: 546 ± 23 min/d
  Steps: 9385 ± 984 #/d
PP, Late Intervention
  LI PA: 208 ± 29 min/d
  MV PA: 48 ± 13 min/d
  PAEE: 409 ± 80 kcal
  Sedentary Time: 561 ± 31 min/d
  Steps: 8274 ± 1596 #/d
PP, Pre-intervention
  LI PA: 214 ± 17 min/d
  MV PA: 52 ± 11 min/d
  PAEE: 438 ± 73 kcal
  Sedentary Time: 556 ± 20 min/d
  Steps: 9286 ± 1379 #/d
PP
  LI PA ES (d): −0.10
  MV PA ES (d): −0.13
  PAEE ES (d): 0.28
  Sedentary Time ES (d): 0.07
  Steps ES (d): −0.26
  LI PA Δ: −6 min/d
  MV PA Δ: −4 min/d
  PAEE Δ: -29 kcal
  Sedentary Time Δ: 5 min/d
  Steps Δ: −1012 #/d
